PubChem BioAssay AID1259405 | NCATS | 2018
Aim: 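Knock-downs that lift recombinant protein yield in hamster ovary cells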 (primary screen). Cells: Chinese hamster CHO-K1 ovary cells with stable secreted eGFP expression. Knock-down reagent: single siRNA against mouse genes, 0.8 pmol siRNA per well (2 µl of 400 nM stock). Duration: 3 days. Detection: 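Per-well intracellular GFP measured by laser scanning cytometry, plus viability from ATP luminescence, each relative to plate median of non-targeting control wells, in %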. Reading the numbers: GFP, % of control: higher = more GFP per well, higher productivity; viability (ATP), % of control: higher = more viable cells (more ATP). Call rule: 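a knock-down is called active if GFP reaches 120% or more of non-targeting control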.
The whole screen tested about 50,000 reagents; this is a random part of them. Of all reagents, about 4,000 (8%) got an active call. 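Mouse siRNA library applied to hamster cells; one well for each siRNA.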 A number with no mark means an inactive call. The numbers tell different reagents against one gene apart.

gene | reagent | GFP, % of control | viability (ATP), % of control
Mical2 | 1 | 62.8 | 86
Mical2 | 2 | 69.9 | 85.8
Mical2 | 3 | 72.6 | 77.1
Cdhr5 | 1 | 67.7 | 73.8
Cdhr5 | 2 | 77.1 | 59
Cdhr5 | 3 | 67.3 | 64.9
Aspscr1 | 1 | 65.3 | 64.6
Aspscr1 | 2 | 38.8 | 47.2
Aspscr1 | 3 | 90.3 | 86.4
Tex24 | 1 | 97.1 | 110
Tex24 | 2 | 73.3 | 74.5
Tex24 | 3 | 76 | 73.5
Plg | 1 | 41 | 101
Plg | 2 | 93.6 | 65.1
Ccdc86 | 1 | 57.1 | 79.5
Ccdc86 | 2 | 92.6 | 64.4
Ccdc86 | 3 | 57 | 54.3
Ciz1 | 1 | 83.7 | 99.8
Ciz1 | 2 | 82.2 | 67
Ciz1 | 3 | 97.7 | 117
Or4c120 | 1 | 49.1 | 38.3
Or4c120 | 2 | 83.6 | 66.6
Or4c120 | 3 | 43.1 | 74.6
Atxn10 | 1 | 93.2 | 104
Atxn10 | 2 | 50.9 | 81.9
Atxn10 | 3 | 51.4 | 85.2
Degs1 | 1 | 79 | 81.5
Degs1 | 2 | 65.5 | 45.2
Degs1 | 3 | 48.5 | 47.3
Stau1 | 1 | 64.1 | 74.2
Stau1 | 2 | 66.3 | 91.7
Stau1 | 3 | 61.4 | 67.3
Gusb | 1 | 73.6 | 77.9
Gusb | 2 | 64.8 | 74.4
Gusb | 3 | 33.5 | 64
Or13a17 | 1 | 86.9 | 80.5
Or13a17 | 2 | 88.5 | 77.2
Or13a17 | 3 | 106 | 101
Sprr2b | 1 | 31.6 | 39.7
Sprr2b | 2 | 34.5 | 52.9
Sprr2b | 3 | 114 | 112
Sema4b | 1 | 54.6 | 58.5
Sema4b | 2 | 136 (active) | 109
Sema4b | 3 | 99.2 | 112
Hoxa11 | 1 | 61.9 | 78.2
Hoxa11 | 2 | 77.4 | 99.6
Hoxa11 | 3 | 54.2 | 43.7
H2bc21 | 1 | 61.4 | 84
H2bc21 | 2 | 92.7 | 67.2
H2bc21 | 3 | 96.8 | 63.9
Paqr4 | 1 | 111 | 91
Paqr4 | 2 | 72.5 | 79.3
Paqr4 | 3 | 73.8 | 91.4
Chst7 | 1 | 57.2 | 63.1
Chst7 | 2 | 47.1 | 76.8
Chst7 | 3 | 94 | 103
Dlx3 | 1 | 72.5 | 68.8
Dlx3 | 2 | 122 (active) | 117
Dlx3 | 3 | 60 | 34.8

Records listed so far marked active, once more:
gene | reagent | GFP, % of control | viability (ATP), % of control
Sema4b | 2 | 136 (active) | 109
Dlx3 | 2 | 122 (active) | 117
